The text below walks through data of article PMC11358521.

These are yes or no findings as the source states them, for the method shown. In cells and extracts the contact can be indirect. Here binding means that the protein was enriched with, or labelled near, the bait; the list need not be complete. For some of these results: A no says only that the protein was not detected with the bait. Tags and fused reporters may be left off the sequences shown.

Assay [1] addresses T1, O-linked β-N-acetylglucosamine (O-GlcNAc) transferase (Ogt) (mouse (endogenous in primary motoneurons)) (UniProt Q8CGY8).
T1 sequence: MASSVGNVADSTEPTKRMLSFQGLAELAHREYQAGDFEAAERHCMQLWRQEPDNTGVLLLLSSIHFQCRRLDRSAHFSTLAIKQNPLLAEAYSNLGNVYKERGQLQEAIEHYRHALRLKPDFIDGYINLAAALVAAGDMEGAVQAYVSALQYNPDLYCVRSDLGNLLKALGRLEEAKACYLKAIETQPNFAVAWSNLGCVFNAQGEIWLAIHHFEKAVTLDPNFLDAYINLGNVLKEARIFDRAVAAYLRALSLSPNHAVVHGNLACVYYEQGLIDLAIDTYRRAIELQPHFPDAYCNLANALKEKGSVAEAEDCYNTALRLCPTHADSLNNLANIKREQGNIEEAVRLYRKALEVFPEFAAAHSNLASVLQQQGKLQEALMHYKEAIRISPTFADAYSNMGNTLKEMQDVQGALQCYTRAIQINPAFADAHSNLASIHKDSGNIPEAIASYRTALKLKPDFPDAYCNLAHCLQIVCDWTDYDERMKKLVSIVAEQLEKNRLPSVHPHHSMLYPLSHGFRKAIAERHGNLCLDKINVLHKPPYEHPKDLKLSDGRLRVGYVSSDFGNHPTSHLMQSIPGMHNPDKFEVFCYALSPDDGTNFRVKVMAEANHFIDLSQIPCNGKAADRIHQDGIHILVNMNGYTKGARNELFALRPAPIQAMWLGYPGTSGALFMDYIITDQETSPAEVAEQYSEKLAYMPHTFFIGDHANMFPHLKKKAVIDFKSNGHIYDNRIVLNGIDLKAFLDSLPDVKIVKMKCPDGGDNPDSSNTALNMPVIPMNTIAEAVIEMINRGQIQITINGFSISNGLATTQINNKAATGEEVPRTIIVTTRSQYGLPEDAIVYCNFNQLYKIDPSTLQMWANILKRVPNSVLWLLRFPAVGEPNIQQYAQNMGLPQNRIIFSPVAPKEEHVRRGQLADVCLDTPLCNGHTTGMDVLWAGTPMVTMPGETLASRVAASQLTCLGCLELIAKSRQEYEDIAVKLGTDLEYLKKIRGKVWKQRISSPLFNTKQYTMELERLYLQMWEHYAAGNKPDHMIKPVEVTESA
Put plainly: affinity purification with mass spectrometry; somatodendritic compartment lysate of motoneurons in microfluidic chambers; anti-hnRNP R (Abcam ab30930) or anti-Ogt (Proteintech 11576-2-AP) on Dynabeads Protein A, against no-antibody control; overnight at 4 °C.

The target of assay [2] is T1, O-linked β-N-acetylglucosamine (O-GlcNAc) transferase (Ogt) (mouse (endogenous in primary motoneurons)). Kind of assay: affinity purification with mass spectrometry; axonal compartment lysate of motoneurons in microfluidic chambers; anti-hnRNP R (Abcam ab30930) or anti-Ogt (Proteintech 11576-2-AP) on Dynabeads Protein A, against no-antibody control; overnight at 4 °C.

Assay [3] has as its target T2, heterogeneous nuclear ribonucleoprotein R (hnRNP R) (mouse (endogenous in primary motoneurons)) (UniProt Q8VHM5).
T2 sequence: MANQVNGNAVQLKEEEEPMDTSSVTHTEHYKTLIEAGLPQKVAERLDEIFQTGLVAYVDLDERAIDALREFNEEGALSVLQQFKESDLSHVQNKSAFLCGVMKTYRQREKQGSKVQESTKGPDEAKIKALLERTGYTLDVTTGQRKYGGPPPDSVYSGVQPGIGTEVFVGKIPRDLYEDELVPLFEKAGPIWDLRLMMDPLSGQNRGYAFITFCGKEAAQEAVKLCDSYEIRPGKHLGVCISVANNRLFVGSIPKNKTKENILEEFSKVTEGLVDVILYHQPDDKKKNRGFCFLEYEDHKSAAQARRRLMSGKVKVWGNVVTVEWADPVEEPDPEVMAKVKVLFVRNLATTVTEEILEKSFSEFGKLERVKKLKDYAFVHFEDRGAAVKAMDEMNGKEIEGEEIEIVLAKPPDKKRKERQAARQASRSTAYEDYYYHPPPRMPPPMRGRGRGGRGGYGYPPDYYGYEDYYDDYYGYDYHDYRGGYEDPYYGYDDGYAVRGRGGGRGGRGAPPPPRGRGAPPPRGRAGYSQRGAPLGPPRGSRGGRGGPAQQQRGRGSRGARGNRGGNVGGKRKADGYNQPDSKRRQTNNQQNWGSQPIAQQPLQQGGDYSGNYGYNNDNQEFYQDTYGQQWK
Kind of assay: affinity purification with mass spectrometry; somatodendritic compartment lysate of motoneurons in microfluidic chambers; anti-hnRNP R (Abcam ab30930) or anti-Ogt (Proteintech 11576-2-AP) on Dynabeads Protein A, against no-antibody control; overnight at 4 °C.

The target in assay [4] is T2, heterogeneous nuclear ribonucleoprotein R (hnRNP R) (mouse (endogenous in primary motoneurons)). Put plainly: affinity purification with mass spectrometry; axonal compartment lysate of motoneurons in microfluidic chambers; anti-hnRNP R (Abcam ab30930) or anti-Ogt (Proteintech 11576-2-AP) on Dynabeads Protein A, against no-antibody control; overnight at 4 °C.

B1: heterogeneous nuclear ribonucleoprotein R (hnRNP R) (protein, UniProt Q8VHM5 1-632)
chain: T2 sequence
Regarding B1, the results for the binding entry in assay [1] and in assay [2] were “no binding (only somatodendritic compartment lysate)” and “binds”, respectively.

B2: O-linked β-N-acetylglucosamine (O-GlcNAc) transferase (Ogt) (enzyme, UniProt Q8CGY8 1-1046)
chain: T1 sequence
On to B2, for which the binding result in assay [3] is “no binding (only somatodendritic compartment lysate)”; in assay [4] it was “binds”.
